Primary screen of a compound library

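Whole-parasite assay of Trypanosoma brucei over 72 hours; the read-out is not stated. Concentration: 10 µM. Direction is inferred from retests: higher values go with stronger inhibition. Values scatter widely below zero; nearly all retest evidence comes from the higher of the two concentrations used. About 2,700 compounds were tested under these conditions; 0.51% (about 14) showed 50% or more at least once.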

Values are the deposited “Percent Effect”, in %. The record does not define 0% and 100%; most values in the screen are far below 50% and negative numbers occur (in some assays of this library far below -100). Compounds were drawn at random from those tested, without regard to their results.

O=C(NCCN1C(=O)c2ccccc2C1=O)c1scnc1Cl gave -13.74%. Cc1cc(CN2CCCCC2Cn2cncn2)no1 (centres unmarked) read -41.37%. Result for CCn1ncc2c1CCCC2NCc1cc(OC)cc(OC)c1 (centres unmarked) was -44.81%. For Cc1nc(C2CCCN(C(=O)c3cccc4c3OCO4)C2)sc1C (centres unmarked) the result was -0.4786%. For N#Cc1cn(C2CC2)c(=O)n(CC(O)c2ccc(Cl)cc2)c1=O (centres unmarked) the result was -73.13%. For Cc1ccc(NC2CCN(C(=O)c3ccnc(N(C)C)c3)CC2)nn1 the result was -51.83%. With CCc1nc(CN2CCc3c(ncn3C3CC3)C2)cs1 the screen gave -57.83%. For CCc1ccc(C(=O)NCc2cccc(S(=O)(=O)NC)c2)o1 the result was -35.68%.

For Cc1ccccc1CN(C)C(=O)CN1CCOC(Cn2cncn2)C1 (centres unmarked) the result was -41.49%. CCC(O)CN1CCN(C(=O)c2sccc2C2CC2)CC1 (centres unmarked) gave -38.03%. Result for CCOC(=O)c1sc2ccsc2c1CNC(=O)COC was -25.51%. Result for CCc1ccc(NS(=O)(=O)c2cc3c(c(C(=O)O)c2)OCCO3)cc1 was -31.76%. For Cc1nc2cc(=O)[nH]n2c(C)c1CC(=O)NCc1ccc(C#N)cc1 the result was -10.24%. CCn1cc(NC(=O)NCc2ccc3c(c2)OCO3)cn1 read -52.88%. CCc1cccc(N2CCC(NC(=O)CCNC(N)=O)CC2)c1 gave -14.47%. Result for Cc1cc(C)n(CCC(=O)N2CCC(Nc3cccnn3)CC2)n1 was -29.95%.

CNc1cc2c(nn1)CCN(C(=O)c1cc(C)n(C3CC3)c1C)C2 read -51.83%. With CCCN(C)S(=O)(=O)N1CCCC1c1ccco1 (centres unmarked) the screen gave -67.2%. CCN1CCN(CCNC(=O)c2sc(C(C)C)nc2C)CC1 read -29.63%. Cc1cccc2nc(CN3CCCC3Cn3cncn3)cn12 (centres unmarked) read -15.59%. With CCN(Cc1ccc2c(c1)OCCO2)C(=O)NCCc1cnn(C)c1 the screen gave -51.99%. With CC(NC(=O)NCCc1ccc(Cl)s1)c1ccccn1 (centres unmarked) the screen gave -61.28%. Result for CC(C)(C)C(=O)NCCC(=O)NCCc1ccn(-c2ccccc2)n1 was -35.6%. N#CCCN(C(=O)CN1CCCC1c1cccs1)c1ccccc1F (centres unmarked) gave -53.3%.

COc1cc(OC)cc(C(=O)N(C)Cc2nnc3ccccn23)c1 gave -52.54%. Cc1nnc2n1CCN(CCOc1ccccc1C#N)C2 gave -49.24%. COc1ccnc(N2CCN(C(=O)Cc3ccn(C(C)C)n3)CC2)n1 gave -48.87%. O=C(CCc1ccsc1)N1CCCCC1Cn1cccn1 (centres unmarked) gave -52.5%. Result for CCC(O)CN1CCN(C(=O)c2ccn(C)c(=O)c2)CC1 (centres unmarked) was -3.486%. CCc1nc(C2CCCN2C(=O)c2ccc3c(c2)COC3)no1 (centres unmarked) read -13.46%. For CCn1ccnc1CN1CCCN(C(=O)Cc2csc(C)n2)CC1 the result was -30.38%. For CN1CCC/C1=N\S(=O)(=O)c1ccc(NC(=O)c2ccsc2)cc1 the result was -46.62%.

With Cc1nc(C(=O)N2CCCC2c2noc(C3CC3)n2)c[nH]1 (centres unmarked) the screen gave -27.83%. Result for CCc1cnc(CN(C)C2CCN(CC(=O)Nc3cc(C)on3)C2)o1 (centres unmarked) was -77.77%. With CC(NC(=O)N1CCN(c2ccccc2O)CC1)c1nncn1C (centres unmarked) the screen gave -19.52%. Result for COc1cc(CNCCc2cnn(C)c2)cc2c1OCO2 was -11.21%. COc1cc(Cl)ccc1C(=O)NCc1nncn1C read -13.92%. For NC(=O)CN1CCCN(C(=O)Cc2cccc(C(F)(F)F)c2)CC1 the result was -35.46%. Result for Clc1ccc(OCCNCCn2cccn2)cc1 was -32.26%. For Cc1cc(NC(=O)NCC2CCN(C(C)C)C2)no1 (centres unmarked) the result was -6.636%.

Result for Cc1cnn(CC2CCCCN2CCCS(=O)(=O)N(C)C)c1 (centres unmarked) was -31.41%. Result for CCn1cc(CN2CCCN(C(=O)c3sc(C)nc3C)CC2)cn1 was -46.02%. Result for CC(C)c1cc(C(=O)N2CCCC(n3cncn3)C2)n[nH]1 (centres unmarked) was -42.05%. For COc1cccc(CN(C)CC(=O)NC2(C)CCS(=O)(=O)C2)c1 (centres unmarked) the result was -30.25%. Result for NC(=O)CC1CCN(C(=O)NCCc2ccc(Cl)s2)CC1 was -15.87%. Result for CCn1ncc2c1CCCC2NCc1cccc2c1OCO2 (centres unmarked) was -31.81%. CC(Cc1ccc(Cl)cc1)NC(=O)Nc1cnn(CC(N)=O)c1 (centres unmarked) gave 5.642%. With CCN1CCOC(CNCc2csc(C)n2)C1 (centres unmarked) the screen gave -44.35%.

Result for CCc1nc(CN2CCCN(CC(O)c3ccccc3)CC2)no1 (centres unmarked) was -2.793%.

Some entries from above, unchanged:

{"compound": "COc1ccnc(N2CCN(C(=O)Cc3ccn(C(C)C)n3)CC2)n1", "Percent Effect": -48.87}
{"compound": "CC(C)(C)C(=O)NCCC(=O)NCCc1ccn(-c2ccccc2)n1", "Percent Effect": -35.6}
{"compound": "CCN1CCOC(CNCc2csc(C)n2)C1", "stereo": "centres unmarked", "Percent Effect": -44.35}
{"compound": "CC(Cc1ccc(Cl)cc1)NC(=O)Nc1cnn(CC(N)=O)c1", "stereo": "centres unmarked", "Percent Effect": 5.642}

Source: ChEMBL document CHEMBL3988442, “University of Dundee, Small-Polar-MMV Screening Library” (2021).